Measured values published in paper PMC4081100.
The comparison behind a weaker result is the experiment's own reference, which may not be listed here. For some assays here: Protein sequences can lack the tags named with them. For some assays here: For at least one entry, the source does not settle the construct or the ends of the probe. For some assays here: At least one verdict was read from the data and is not stated in words by the source.

By UniProt entry, the sequences of proteins in these tests, tags left out. Residues count along the entry.
UniProt Q9SCK6, 1-168: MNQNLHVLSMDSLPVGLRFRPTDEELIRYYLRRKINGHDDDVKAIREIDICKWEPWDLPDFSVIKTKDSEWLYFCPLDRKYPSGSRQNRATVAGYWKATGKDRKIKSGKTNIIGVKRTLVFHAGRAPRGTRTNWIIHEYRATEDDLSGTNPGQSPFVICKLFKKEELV

Columns and labels:
[1] = target: GST-NTL6(1-168) (Arabidopsis thaliana) (UniProt Q9SCK6); experiment: EMSA; conditions: EMSA with 75 pM 32P-labelled DNA; oligos annealed in 20 mM Tris-HCl pH 8.0, 20 mM MgCl2; recombinant protein; residues 1-168; protein details: GST; label: 32P
[2] = target: T1, GST-ANAC092(1-176) (Arabidopsis thaliana) (UniProt Q9FKA0); experiment: EMSA; conditions: EMSA with 75 pM 32P-labelled DNA; oligos annealed in 20 mM Tris-HCl pH 8.0, 20 mM MgCl2; recombinant protein; residues 1-176; protein details: GST; label: 32P
T1 sequence (looked up): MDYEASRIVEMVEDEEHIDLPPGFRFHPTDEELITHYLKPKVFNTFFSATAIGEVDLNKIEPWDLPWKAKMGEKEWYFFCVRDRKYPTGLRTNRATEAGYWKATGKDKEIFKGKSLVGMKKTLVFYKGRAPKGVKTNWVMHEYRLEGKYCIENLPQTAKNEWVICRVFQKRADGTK

| Sequence | binding result [1] | binding result [2] |
| --- | --- | --- |
| CAGTCTTGCGTGTTGGAACACGCAACAGTC (double strand) [PalNACBS] | binds more weakly |  |
| GATCAGGTTCAGCTAAGTAACCGATCCAGG / GATCCCTGGATCGGTTACTTAGCTGAACCT [MYB90Synth (Synthetic promoter)] |  | binds more weakly |
